Results deposited as PubChem BioAssay AID504804 (Drosophila RNAi Screening Center, 2011)
The screen tested about 19,000 reagents; this is an unselected part of those that have a named target and a result. Of all reagents, 47 (0.25%) are marked active. 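Signals are raw, not normalised; exact z-scores behind calls not deposited; actives needed confirmation, so some wells reaching 2 SD are inactive.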 Entries without a mark were called inactive. Names joined by + are all predicted targets of the reagent.

Purpose: 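dsRNAs that improve Kc cell survival under doxorubicin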 (primary screen)
System: Drosophila Kc cells
Reagent: long dsRNA against Drosophila genes, 0.5 µg dsRNA per well
Time to read-out: 96 h (48 h knock-down, then 48 h drug)
Conditions: doxorubicin 5 µg/ml for 48 h, added 48 h after dsRNA
Detection: 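Viability measured as cellular ATP by luminescence after 48 h knock-down then 48 h doxorubicin at 5 µg/ml; unnormalised plate counts for each replicate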
Scale: raw ATP luminescence: higher = more viable cells, protection from doxorubicin
Hit rule: 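z-score of 2 or more over plate mean in both duplicates, retained only when retests and separate dsRNAs confirm the protection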

With QC [DRSC09736], how do the results read?
raw ATP luminescence, replicate 1: 39870; raw ATP luminescence, replicate 2: 37760

How did the screen score Unc-115b + p24-2 + Unc-115a [DRSC16502]?
raw ATP luminescence, replicate 1: 63600; raw ATP luminescence, replicate 2: 67803

How did the screen score CG8051 [DRSC20077]?
raw ATP luminescence, replicate 1: 3.50e5; raw ATP luminescence, replicate 2: 2.90e5

What did the screen give for brun [DRSC02706]?
raw ATP luminescence, replicate 1: 89840; raw ATP luminescence, replicate 2: 82610

What did the screen give for CG33792 [DRSC05355]?
raw ATP luminescence, replicate 1: 94620; raw ATP luminescence, replicate 2: 1.07e5

What is on record for CG10748 [DRSC09797]?
raw ATP luminescence, replicate 1: 92020; raw ATP luminescence, replicate 2: 95020

For Dap160 [DRSC03313], how do the results read?
raw ATP luminescence, replicate 1: 80243; raw ATP luminescence, replicate 2: 65097

For Cyp6g1 [DRSC07386], what was measured?
raw ATP luminescence, replicate 1: 70027; raw ATP luminescence, replicate 2: 53903

With CG2256 [DRSC18220], what does the deposit list?
raw ATP luminescence, replicate 1: 47590; raw ATP luminescence, replicate 2: 51720

With Vsx2 [DRSC17397], what does the deposit list?
raw ATP luminescence, replicate 1: 1.79e5; raw ATP luminescence, replicate 2: 1.66e5

For Vsx2 [DRSC18087], what does the deposit list?
raw ATP luminescence, replicate 1: 16190; raw ATP luminescence, replicate 2: 22170

Which result is listed for Vsx2 [DRSC18088]?
raw ATP luminescence, replicate 1: 26160; raw ATP luminescence, replicate 2: 42480

What is on record for Vsx2 [DRSC18089]?
raw ATP luminescence, replicate 1: 23960; raw ATP luminescence, replicate 2: 35580

What is on record for CG42713 [DRSC01050]?
raw ATP luminescence, replicate 1: 3.23e5; raw ATP luminescence, replicate 2: 2.35e5

6 of these entries, reformatted:
gene knocked down	dsRNA	raw ATP luminescence, replicate 1	raw ATP luminescence, replicate 2
CG10748	DRSC09797	92020	95020
Dap160	DRSC03313	80243	65097
Cyp6g1	DRSC07386	70027	53903
CG2256	DRSC18220	47590	51720
Vsx2	DRSC17397	1.79e5	1.66e5
Vsx2	DRSC18087	16190	22170

Continued:
For regucalcin [DRSC18908], what does the deposit list?
raw ATP luminescence, replicate 1: 2.79e5; raw ATP luminescence, replicate 2: 2.29e5

What did the screen give for regucalcin [DRSC20366]?
raw ATP luminescence, replicate 1: 3.61e5; raw ATP luminescence, replicate 2: 3.15e5

For su(Hw) [DRSC17074], what does the deposit list?
raw ATP luminescence, replicate 1: 64013; raw ATP luminescence, replicate 2: 28653

What is on record for CG1677 [DRSC18116]?
raw ATP luminescence, replicate 1: 43960; raw ATP luminescence, replicate 2: 43720

For CG34289 [DRSC13625], what does the deposit list?
raw ATP luminescence, replicate 1: 2.20e5; raw ATP luminescence, replicate 2: 2.60e5

How did the screen score dgrn [DRSC12154]?
raw ATP luminescence, replicate 1: 57510; raw ATP luminescence, replicate 2: 17180

With Cp38 [DRSC18453], how do the results read?
raw ATP luminescence, replicate 1: 44880; raw ATP luminescence, replicate 2: 36640

For CG3081 [DRSC18571], how do the results read?
raw ATP luminescence, replicate 1: 44020; raw ATP luminescence, replicate 2: 40270

How did the screen score CG11035 [DRSC14287]?
raw ATP luminescence, replicate 1: 67363; raw ATP luminescence, replicate 2: 23167

With CG5641 [DRSC15852], how do the results read?
raw ATP luminescence, replicate 1: 50040; raw ATP luminescence, replicate 2: 27270

How did the screen score hui [DRSC05977]?
raw ATP luminescence, replicate 1: 55520; raw ATP luminescence, replicate 2: 63260

With pr [DRSC03596], what was measured?
raw ATP luminescence, replicate 1: 1.26e5; raw ATP luminescence, replicate 2: 85637

With Lamtor2 + CG30120 [DRSC05726], what does the deposit list?
raw ATP luminescence, replicate 1: 1.12e5; raw ATP luminescence, replicate 2: 98363

How did the screen score JMJD6 [DRSC15787]?
raw ATP luminescence, replicate 1: 45093; raw ATP luminescence, replicate 2: 56903

What is on record for CG14330 [DRSC14809]?
raw ATP luminescence, replicate 1: 84200; raw ATP luminescence, replicate 2: 74890

How did the screen score Got1 [DRSC07177]?
raw ATP luminescence, replicate 1: 56713; raw ATP luminescence, replicate 2: 73743

For Ttc7 [DRSC04836], how do the results read?
raw ATP luminescence, replicate 1: 58610; raw ATP luminescence, replicate 2: 77607

For CG10750 [DRSC02105], what does the deposit list?
raw ATP luminescence, replicate 1: 94467; raw ATP luminescence, replicate 2: 77733

For Orct [DRSC16777], what does the deposit list?
raw ATP luminescence, replicate 1: 35823; raw ATP luminescence, replicate 2: 37037

How did the screen score CG18210 (retired record) [DRSC19089]?
raw ATP luminescence, replicate 1: 2.43e5; raw ATP luminescence, replicate 2: 2.86e5

What is on record for Dref [DRSC03319]?
raw ATP luminescence, replicate 1: 84640; raw ATP luminescence, replicate 2: 68063

For CG34316 [DRSC13080], what does the deposit list?
raw ATP luminescence, replicate 1: 2.17e5; raw ATP luminescence, replicate 2: 1.98e5
